# Laboratory results taken from PubChem BioAssay AID540276 (National Center for Advancing Translational Sciences (NCATS), 2011).
# Among all 300,000 compounds or so, about 5,400 (1.8%) were called active. Inconclusive means that the source gave no clear call. Such entries were picked first, then a sample of the others. Calls follow the shape of the full dose curve; tested in HEK293 cells. Potencies of inconclusive entries are doubtful fits and often do not repeat.
# Assay: qHTS for inhibitors of binding or entry into cells for Marburg Virus
# Settings: Marburg virus pseudotyped entry inhibition, cell reporter; activity change, negative = inhibition: at 37.8 µM (top of the series) unless noted
# % is scaled to controls: 0 for no effect and ±100 for the full control effect; potency is read from the fitted curve at half-maximal effect.
Compound,Potency,"activity change, negative = inhibition"
CCC1CCC(C(=O)NC(C(=O)Nc2ccc3c(c2)OCCO3)C(C)C)CC1 (configuration not stated),"inconclusive: 8.91 µM [activator, partial curve, poor fit]",
Cc1ccc(C(C)C)c(OCC(=O)Nc2ccc3c(c2)nc(CN2CCCC2)n3C)c1,"inconclusive: 12.6 µM [inhibitor, partial curve, poor fit]",
COc1ccc(-c2cc(C(=O)OCC(=O)Nc3cc(C)on3)c3ccccc3n2)cc1OC,,inactive: 1.35%
CCOc1ccc(C(=O)NCCCCNC(=O)c2ccc(OCC)cc2)cc1,,inactive: 28.1%
O=C(Nc1ccc(Oc2cccc(C(F)(F)F)c2)nc1)c1cccs1,"inconclusive: 10 µM [inhibitor, partial curve, poor fit]",
Cc1ccc2c(CN3C(=O)NC(C)(c4ccc5c(c4)OCO5)C3=O)cc(=O)oc2c1 (configuration not stated),"inconclusive: 2.06 µM [inhibitor, full curve]",
CC(=O)c1ccc(N2CCN(CC(O)COC(c3ccccc3)c3ccccc3)CC2)cc1 (configuration not stated),"inconclusive: 6.31 µM [inhibitor, single point]",
Cc1ccccc1NC(=O)CSc1nc2ccc(NC(=O)COc3ccccc3F)cc2s1,,inactive: -15.1% [at 46.1 µM]
CCn1cnc2c1c(=O)n(Cc1csc(-c3ccccc3)n1)c(=O)n2Cc1ccccc1,"inconclusive: 11.2 µM [inhibitor, single point]",
CC(=O)c1cccc(NC(=S)NC(=O)c2ccc(Cl)cc2)c1,"inconclusive: 14.6 µM [activator, partial curve, poor fit]",
COc1ccccc1N1CCN(c2nc(C)cc(=O)[nH]2)CC1,"inconclusive: 28.2 µM [inhibitor, single point]",
Cc1ccc(C(=O)N(CCN(C)C)CC2CCCN(Cc3ccccc3F)C2)cc1C (configuration not stated),"inconclusive: 35.5 µM [inhibitor, single point]",
COc1cc(C(=O)Nc2ccc(-c3cc(C(F)(F)F)nn3-c3ccccc3)cc2)cc(OC)c1OC,"inconclusive: 35.5 µM [inhibitor, single point]",
COc1ccc(NC(=O)CSc2nc3ccccc3c3nc4ccccc4n23)cc1,"inconclusive: 0.794 µM [inhibitor, full curve]",
Cc1ccc(S(=O)(=O)Nc2cc(Cl)c3oc4c(c3c2)C(=O)CC(C)(C)C4)cc1,"inconclusive: 3.55 µM [inhibitor, single point]",
COc1ccc(-c2ccc(CCC(=O)O)n2Cc2ccco2)cc1,,inactive: 16% [at 46.1 µM]
COc1ccccc1N=c1sc2ccccc2n1C,,inactive: -16.9%
CC(C)CCNC(=O)Cc1ccc(Nc2nc(=S)[nH]c3ccccc23)cc1,"inconclusive: 2.51 µM [inhibitor, partial curve, poor fit]",
COc1cccc(CNc2nc3nc(C)c(Cl)c(C)n3n2)c1,"inconclusive: 20.6 µM [activator, single point]",
CN(c1ccccc1C(=O)Nc1ccc2c(c1)OCO2)S(C)(=O)=O,,inactive: 7.75%
Cc1ccc(-c2nnn(CC(=O)NC3CC4CCC3C4)n2)cc1 (configuration not stated),"inconclusive: 10 µM [inhibitor, partial curve]",

Compound,Potency,"activity change, negative = inhibition"
COc1ccc(C)cc1NCc1cc(=O)oc2cc(-c3ccccc3)c(O)cc12,"inconclusive: 32.6 µM [inhibitor, single point]",
O=C(C1CCN(CC2CC=CCC2)CC1)N(CCc1ccccc1)Cc1ccccc1 (configuration not stated),"inconclusive: 23.1 µM [inhibitor, single point]",
Cc1cccc(NC(=O)c2cc([N+](=O)[O-])ccc2NC2CCCCC2)c1,,inactive: 8.66%
CN(CC(=O)Nc1cccc(F)c1)CC(=O)Nc1cccc(S(=O)(=O)N(C)c2ccccc2)c1,"inconclusive: 11.2 µM [inhibitor, partial curve, poor fit]",
CCn1c(SCc2ccc(Cl)c(Cl)c2)nnc1C(C)NC(=O)c1ccc(OC)cc1 (configuration not stated),,inactive: 3.33%
CCN(Cc1ccccc1)C(=O)C1CCN(CC2CC=CCC2)CC1 (configuration not stated),"inconclusive: 3.98 µM [activator, full curve, poor fit]",
COC(=O)C1(C)NC(c2ccc(O)cc2)C2C(=O)N(c3ccc(C)cc3)C(=O)C21 (configuration not stated),,inactive: -3.96% [at 46.1 µM]
O=[N+]([O-])c1cccc(-c2cn3ccccc3n2)c1,,inactive: -12.5% [at 46.1 µM]
COc1cc2c(cc1OC)CN(C(=O)CN1C(=O)c3ccc([N+](=O)[O-])cc3C1=O)CC2,"inconclusive: 35.5 µM [activator, single point]",
O=C(Cn1cc2c(n1)CCCCC2)N1CCCCC1,"inconclusive: 13 µM [activator, partial curve, poor fit]",
COc1ccc(S(=O)(=O)NCc2ccc(C(=O)NCCCN3CCCC(C)C3)cc2)cc1 (configuration not stated),"inconclusive: 10 µM [inhibitor, partial curve, poor fit]",
CC(=O)N1CCN(c2ccc(NCc3cccc4ccccc34)cc2)CC1,"inconclusive: 22.4 µM [inhibitor, single point]",
COc1cccc(NS(=O)(=O)c2ccc3[nH]cc(C(=O)NC4CCCCC4)c(=O)c3c2)c1,"inconclusive: 31.6 µM [inhibitor, single point]",
CCS(=O)(=O)c1ccc(-c2csc(-c3ccccc3)n2)c(Cl)c1Cl,"inconclusive: 35.5 µM [inhibitor, single point]",
CCCCCOC(=O)CC(C(=O)OCCCCC)N1CCCCC1 (configuration not stated),"inconclusive: 35.5 µM [inhibitor, single point]",
Cc1cc(-c2nn(-c3ccccc3F)cc2CN2CCN(c3ccccn3)CC2)c(C)s1,"inconclusive: 17.8 µM [inhibitor, partial curve, poor fit]",
C/C(=N\NC(=O)c1ccc(N/N=C(\C)c2ccncc2)cc1)c1ccncc1,active: 1 µM,
Cc1cc(NS(=O)(=O)c2ccc(NC(=O)COc3c(C)cc(Br)cc3C)cc2)no1,inactive,
C=CCn1c(O)c(C=Nc2ccccc2)sc1=S,,inactive: -0.841% [at 46.1 µM]
CCOC(=O)N1CCN(C(=O)COc2ccc(S(=O)(=O)NCc3ccccc3)cc2)CC1,"inconclusive: 18.3 µM [inhibitor, single point]",
NS(=O)(=O)c1ccc(NC(=S)NC(=O)C2CCCC2)cc1,,inactive: 25.5% [at 46.1 µM]

# A different layout for some results above.
Compound | Potency | activity change, negative = inhibition
CCn1c(SCc2ccc(Cl)c(Cl)c2)nnc1C(C)NC(=O)c1ccc(OC)cc1 (configuration not stated) |  | inactive: 3.33%
CCN(Cc1ccccc1)C(=O)C1CCN(CC2CC=CCC2)CC1 (configuration not stated) | inconclusive: 3.98 µM [activator, full curve, poor fit] | 
COC(=O)C1(C)NC(c2ccc(O)cc2)C2C(=O)N(c3ccc(C)cc3)C(=O)C21 (configuration not stated) |  | inactive: -3.96% [at 46.1 µM]
O=[N+]([O-])c1cccc(-c2cn3ccccc3n2)c1 |  | inactive: -12.5% [at 46.1 µM]
COc1cc2c(cc1OC)CN(C(=O)CN1C(=O)c3ccc([N+](=O)[O-])cc3C1=O)CC2 | inconclusive: 35.5 µM [activator, single point] | 
O=C(Cn1cc2c(n1)CCCCC2)N1CCCCC1 | inconclusive: 13 µM [activator, partial curve, poor fit] | 
COc1ccc(S(=O)(=O)NCc2ccc(C(=O)NCCCN3CCCC(C)C3)cc2)cc1 (configuration not stated) | inconclusive: 10 µM [inhibitor, partial curve, poor fit] | 
CC(=O)N1CCN(c2ccc(NCc3cccc4ccccc34)cc2)CC1 | inconclusive: 22.4 µM [inhibitor, single point] | 
COc1cccc(NS(=O)(=O)c2ccc3[nH]cc(C(=O)NC4CCCCC4)c(=O)c3c2)c1 | inconclusive: 31.6 µM [inhibitor, single point] | 
